Consider four substances from publication PMC5509376.

Sequences of proteins named here, by UniProt entry; tags and fusion partners are left off. Residues count along the entry.
UniProt Q6PHU5, residues 74-825: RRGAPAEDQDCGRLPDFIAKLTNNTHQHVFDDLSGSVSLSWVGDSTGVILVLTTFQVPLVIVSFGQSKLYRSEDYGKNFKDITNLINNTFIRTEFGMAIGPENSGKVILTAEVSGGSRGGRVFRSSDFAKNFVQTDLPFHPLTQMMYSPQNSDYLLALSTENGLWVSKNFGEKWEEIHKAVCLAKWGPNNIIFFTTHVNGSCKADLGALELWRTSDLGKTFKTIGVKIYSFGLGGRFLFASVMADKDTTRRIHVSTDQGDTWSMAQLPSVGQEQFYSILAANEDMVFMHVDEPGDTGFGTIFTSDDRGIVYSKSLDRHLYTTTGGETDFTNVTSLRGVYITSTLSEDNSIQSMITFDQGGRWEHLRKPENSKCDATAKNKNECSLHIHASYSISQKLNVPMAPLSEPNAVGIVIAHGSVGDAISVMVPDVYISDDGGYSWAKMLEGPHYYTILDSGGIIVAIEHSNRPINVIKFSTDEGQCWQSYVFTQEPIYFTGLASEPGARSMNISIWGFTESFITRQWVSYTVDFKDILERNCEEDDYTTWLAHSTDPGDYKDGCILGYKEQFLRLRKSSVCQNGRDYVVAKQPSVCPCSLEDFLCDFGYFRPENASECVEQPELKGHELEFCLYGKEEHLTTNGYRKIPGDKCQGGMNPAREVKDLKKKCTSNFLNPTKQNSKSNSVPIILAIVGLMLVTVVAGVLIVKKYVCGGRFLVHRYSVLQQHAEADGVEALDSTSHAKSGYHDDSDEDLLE

Results are given in words; binding and its absence hold for the method and conditions named. In cells and extracts the contact can be indirect. Some results given as binding are weak or reduced against the parent protein; the word gives no strength.

The target in test [1] is sortilin (mouse (endogenous in N2a neuroblastoma cells)) (UniProt Q6PHU5). Briefly: co-IP.
The target of test [2] is cellular prion protein (mouse) (UniProt P04925). Briefly: co-IP.
Test [3] concerns the target cellular prion protein of mouse brain (mouse (endogenous in mouse brain)) (UniProt P04925). As to the kind of experiment: co-IP; mouse brain homogenate; SAF61 anti-PrP Ab.

Turning to “abnormally folded isoform of prion protein (from UniProt P04925 23-230)”, the binding entry in test [1] is “binds”.

In the case of “cellular prion protein (from UniProt P04925 23-230)”, in test [1], the binding result is reported as “binds”.

Take “sortilin (from UniProt Q6PHU5 74-825) (receptor)”: the binding result in test [2] was “binds”.

Regarding “sortilin of mouse brain (from UniProt Q6PHU5 74-825) (receptor)”, the binding result in test [3] is on record as “binds”.
